This note sets out measurements from the supplement of paper PMC12067093, “Discovery and optimisation of a covalent ligand for TRIM25 and its application to targeted protein ubiquitination” (Chemical Science, 2025).

Sequences of proteins named here, by UniProt entry; tags and fusion partners are left off. A change or cut given only in a name is not applied to a line headed by its entry.
UniProt P36508: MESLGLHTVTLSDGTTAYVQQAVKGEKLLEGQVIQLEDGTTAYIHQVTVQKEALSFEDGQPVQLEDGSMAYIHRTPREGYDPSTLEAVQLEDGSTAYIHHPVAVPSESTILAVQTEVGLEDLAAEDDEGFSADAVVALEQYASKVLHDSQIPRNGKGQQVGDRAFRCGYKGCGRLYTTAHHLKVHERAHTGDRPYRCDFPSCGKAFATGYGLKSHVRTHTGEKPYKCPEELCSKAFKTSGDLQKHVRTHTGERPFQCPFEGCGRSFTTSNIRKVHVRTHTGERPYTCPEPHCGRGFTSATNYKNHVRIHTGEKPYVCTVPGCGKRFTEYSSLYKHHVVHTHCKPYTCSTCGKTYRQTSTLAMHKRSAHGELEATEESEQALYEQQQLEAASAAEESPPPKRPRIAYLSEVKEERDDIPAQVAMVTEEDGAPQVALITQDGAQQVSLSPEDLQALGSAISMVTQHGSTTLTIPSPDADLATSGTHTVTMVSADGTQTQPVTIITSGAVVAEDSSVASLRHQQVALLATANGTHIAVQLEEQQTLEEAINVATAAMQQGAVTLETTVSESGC
UniProt Q9Y5V0: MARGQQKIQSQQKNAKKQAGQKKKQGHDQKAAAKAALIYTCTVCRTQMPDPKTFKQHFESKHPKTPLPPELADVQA
UniProt Q5T7W0: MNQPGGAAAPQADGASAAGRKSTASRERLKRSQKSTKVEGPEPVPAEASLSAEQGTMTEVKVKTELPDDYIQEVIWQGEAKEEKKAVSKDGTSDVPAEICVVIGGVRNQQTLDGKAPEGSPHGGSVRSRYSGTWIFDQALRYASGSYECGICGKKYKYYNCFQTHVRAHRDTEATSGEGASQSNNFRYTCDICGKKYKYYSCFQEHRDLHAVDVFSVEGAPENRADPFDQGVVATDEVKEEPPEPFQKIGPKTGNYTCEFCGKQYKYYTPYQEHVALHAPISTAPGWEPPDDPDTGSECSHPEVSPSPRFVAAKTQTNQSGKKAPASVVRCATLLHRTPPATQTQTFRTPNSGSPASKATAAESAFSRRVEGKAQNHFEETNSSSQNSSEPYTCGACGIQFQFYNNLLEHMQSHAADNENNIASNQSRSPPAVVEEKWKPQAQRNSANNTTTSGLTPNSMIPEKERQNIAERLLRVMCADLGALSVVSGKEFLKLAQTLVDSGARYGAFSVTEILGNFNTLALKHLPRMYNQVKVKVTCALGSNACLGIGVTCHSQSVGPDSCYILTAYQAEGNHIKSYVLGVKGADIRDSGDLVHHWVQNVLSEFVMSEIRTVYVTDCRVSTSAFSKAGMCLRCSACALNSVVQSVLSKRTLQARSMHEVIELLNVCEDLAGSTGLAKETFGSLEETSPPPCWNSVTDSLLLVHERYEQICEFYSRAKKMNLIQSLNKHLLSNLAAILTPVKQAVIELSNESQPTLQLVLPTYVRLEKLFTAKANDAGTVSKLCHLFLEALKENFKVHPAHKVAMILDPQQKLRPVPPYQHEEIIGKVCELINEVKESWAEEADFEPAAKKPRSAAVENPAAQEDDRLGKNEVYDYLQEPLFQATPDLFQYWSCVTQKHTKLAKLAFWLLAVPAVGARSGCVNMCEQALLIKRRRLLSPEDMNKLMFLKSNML
UniProt Q14202: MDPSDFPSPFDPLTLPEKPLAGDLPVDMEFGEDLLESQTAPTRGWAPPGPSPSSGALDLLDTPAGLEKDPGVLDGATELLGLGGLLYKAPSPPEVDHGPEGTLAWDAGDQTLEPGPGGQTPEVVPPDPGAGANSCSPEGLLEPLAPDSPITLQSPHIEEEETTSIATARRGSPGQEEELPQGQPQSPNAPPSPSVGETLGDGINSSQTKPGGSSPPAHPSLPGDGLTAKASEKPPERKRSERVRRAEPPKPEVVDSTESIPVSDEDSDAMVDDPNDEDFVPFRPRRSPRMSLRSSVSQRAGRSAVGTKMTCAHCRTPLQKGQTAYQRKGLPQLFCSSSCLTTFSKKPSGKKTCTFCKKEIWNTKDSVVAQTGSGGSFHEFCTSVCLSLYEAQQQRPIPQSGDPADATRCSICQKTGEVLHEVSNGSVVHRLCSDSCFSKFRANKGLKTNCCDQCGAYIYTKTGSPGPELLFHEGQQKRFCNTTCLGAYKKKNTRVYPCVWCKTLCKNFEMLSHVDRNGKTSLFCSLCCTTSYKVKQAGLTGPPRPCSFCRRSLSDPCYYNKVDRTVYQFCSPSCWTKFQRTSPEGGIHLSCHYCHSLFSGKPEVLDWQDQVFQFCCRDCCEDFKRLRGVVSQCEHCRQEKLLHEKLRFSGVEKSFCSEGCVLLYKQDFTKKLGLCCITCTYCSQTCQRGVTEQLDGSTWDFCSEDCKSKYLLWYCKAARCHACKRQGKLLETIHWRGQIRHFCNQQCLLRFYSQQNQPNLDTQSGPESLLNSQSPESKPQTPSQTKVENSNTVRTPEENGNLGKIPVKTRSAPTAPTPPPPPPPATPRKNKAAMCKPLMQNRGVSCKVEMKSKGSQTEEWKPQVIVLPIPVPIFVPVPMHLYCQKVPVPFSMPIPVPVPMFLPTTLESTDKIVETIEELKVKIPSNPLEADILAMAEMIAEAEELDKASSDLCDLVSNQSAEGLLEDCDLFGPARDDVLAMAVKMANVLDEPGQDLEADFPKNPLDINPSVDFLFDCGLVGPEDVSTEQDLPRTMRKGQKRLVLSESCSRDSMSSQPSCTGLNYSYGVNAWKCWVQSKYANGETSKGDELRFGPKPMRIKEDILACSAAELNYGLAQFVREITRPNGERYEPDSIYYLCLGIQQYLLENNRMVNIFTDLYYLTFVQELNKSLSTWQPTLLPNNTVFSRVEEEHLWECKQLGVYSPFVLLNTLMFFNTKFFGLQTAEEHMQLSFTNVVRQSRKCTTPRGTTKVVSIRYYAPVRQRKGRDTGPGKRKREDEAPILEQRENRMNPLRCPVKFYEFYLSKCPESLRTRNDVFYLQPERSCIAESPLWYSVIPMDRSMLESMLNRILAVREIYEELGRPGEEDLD
UniProt Q96JP5: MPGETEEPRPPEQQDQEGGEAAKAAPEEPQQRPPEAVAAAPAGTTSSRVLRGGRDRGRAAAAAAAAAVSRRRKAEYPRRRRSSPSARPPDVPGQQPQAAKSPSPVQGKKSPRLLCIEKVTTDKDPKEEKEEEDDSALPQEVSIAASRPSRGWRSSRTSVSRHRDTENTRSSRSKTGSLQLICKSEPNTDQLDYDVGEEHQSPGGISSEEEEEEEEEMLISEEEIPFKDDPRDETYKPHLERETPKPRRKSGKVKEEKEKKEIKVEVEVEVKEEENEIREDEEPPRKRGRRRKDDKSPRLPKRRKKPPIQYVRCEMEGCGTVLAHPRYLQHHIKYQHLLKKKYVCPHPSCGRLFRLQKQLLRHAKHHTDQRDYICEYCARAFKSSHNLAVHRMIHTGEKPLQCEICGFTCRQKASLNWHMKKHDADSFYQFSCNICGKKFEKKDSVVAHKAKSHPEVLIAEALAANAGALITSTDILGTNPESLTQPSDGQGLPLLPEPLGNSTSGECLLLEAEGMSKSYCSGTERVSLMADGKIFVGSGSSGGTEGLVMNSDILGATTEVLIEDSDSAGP
UniProt Q86UK7: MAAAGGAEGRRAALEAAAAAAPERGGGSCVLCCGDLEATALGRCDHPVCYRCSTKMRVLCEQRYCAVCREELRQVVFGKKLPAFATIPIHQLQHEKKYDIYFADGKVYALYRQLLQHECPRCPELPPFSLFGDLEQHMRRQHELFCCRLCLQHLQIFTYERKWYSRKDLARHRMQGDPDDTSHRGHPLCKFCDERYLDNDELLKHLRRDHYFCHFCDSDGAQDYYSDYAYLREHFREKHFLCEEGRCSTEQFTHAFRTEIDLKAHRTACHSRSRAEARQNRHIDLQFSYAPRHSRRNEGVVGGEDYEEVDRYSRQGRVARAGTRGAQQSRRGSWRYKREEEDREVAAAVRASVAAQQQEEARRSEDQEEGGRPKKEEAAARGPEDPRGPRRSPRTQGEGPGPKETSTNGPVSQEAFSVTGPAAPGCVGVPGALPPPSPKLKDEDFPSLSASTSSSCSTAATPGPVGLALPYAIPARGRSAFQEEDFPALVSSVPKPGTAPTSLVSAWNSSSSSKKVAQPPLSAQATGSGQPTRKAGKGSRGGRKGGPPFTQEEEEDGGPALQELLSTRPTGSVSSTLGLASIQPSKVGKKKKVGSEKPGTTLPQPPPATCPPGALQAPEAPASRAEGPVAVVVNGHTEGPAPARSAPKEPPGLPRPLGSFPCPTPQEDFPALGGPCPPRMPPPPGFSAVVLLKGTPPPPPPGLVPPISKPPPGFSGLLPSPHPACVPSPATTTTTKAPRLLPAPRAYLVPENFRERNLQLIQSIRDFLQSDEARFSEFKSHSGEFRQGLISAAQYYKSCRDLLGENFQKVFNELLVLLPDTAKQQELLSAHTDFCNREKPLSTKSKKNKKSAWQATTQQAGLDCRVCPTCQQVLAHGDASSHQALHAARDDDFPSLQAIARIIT
UniProt Q8NAF0: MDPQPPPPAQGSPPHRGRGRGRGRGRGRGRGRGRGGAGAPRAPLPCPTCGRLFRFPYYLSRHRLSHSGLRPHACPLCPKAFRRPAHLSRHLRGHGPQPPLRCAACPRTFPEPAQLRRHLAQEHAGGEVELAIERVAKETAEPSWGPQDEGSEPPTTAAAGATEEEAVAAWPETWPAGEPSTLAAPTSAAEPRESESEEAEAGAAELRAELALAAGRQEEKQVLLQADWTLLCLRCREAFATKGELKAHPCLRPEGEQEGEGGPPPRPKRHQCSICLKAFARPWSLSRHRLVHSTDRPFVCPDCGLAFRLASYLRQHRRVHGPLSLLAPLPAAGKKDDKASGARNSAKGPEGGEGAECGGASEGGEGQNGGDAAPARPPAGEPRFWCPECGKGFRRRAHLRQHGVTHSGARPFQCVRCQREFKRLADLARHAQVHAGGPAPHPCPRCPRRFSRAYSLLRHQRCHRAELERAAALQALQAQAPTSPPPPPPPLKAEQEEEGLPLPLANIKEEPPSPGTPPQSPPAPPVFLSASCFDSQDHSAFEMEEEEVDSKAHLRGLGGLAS
UniProt Q9UEG4: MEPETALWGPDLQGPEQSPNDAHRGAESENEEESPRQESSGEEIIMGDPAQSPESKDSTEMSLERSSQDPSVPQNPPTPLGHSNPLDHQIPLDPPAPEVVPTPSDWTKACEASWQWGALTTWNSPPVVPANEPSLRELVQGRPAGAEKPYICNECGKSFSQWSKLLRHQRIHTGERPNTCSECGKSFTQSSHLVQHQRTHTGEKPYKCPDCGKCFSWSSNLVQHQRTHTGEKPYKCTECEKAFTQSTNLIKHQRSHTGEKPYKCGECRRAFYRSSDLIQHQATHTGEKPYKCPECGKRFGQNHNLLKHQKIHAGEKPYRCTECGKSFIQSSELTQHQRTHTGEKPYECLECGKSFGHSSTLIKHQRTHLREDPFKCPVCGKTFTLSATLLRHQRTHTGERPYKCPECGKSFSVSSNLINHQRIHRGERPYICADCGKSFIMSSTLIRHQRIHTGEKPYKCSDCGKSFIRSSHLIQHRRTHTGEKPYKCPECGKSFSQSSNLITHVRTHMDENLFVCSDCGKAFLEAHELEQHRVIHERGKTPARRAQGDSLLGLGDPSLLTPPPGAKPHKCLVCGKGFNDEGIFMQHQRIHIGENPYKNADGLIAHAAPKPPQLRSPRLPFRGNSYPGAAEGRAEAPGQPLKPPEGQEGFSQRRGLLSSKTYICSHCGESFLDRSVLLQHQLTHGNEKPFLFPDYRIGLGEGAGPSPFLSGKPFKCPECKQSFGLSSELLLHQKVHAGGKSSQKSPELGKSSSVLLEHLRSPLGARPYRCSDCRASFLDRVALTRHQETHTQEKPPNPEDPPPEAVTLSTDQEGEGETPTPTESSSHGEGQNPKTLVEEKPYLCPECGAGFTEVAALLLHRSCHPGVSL
UniProt Q96GC6: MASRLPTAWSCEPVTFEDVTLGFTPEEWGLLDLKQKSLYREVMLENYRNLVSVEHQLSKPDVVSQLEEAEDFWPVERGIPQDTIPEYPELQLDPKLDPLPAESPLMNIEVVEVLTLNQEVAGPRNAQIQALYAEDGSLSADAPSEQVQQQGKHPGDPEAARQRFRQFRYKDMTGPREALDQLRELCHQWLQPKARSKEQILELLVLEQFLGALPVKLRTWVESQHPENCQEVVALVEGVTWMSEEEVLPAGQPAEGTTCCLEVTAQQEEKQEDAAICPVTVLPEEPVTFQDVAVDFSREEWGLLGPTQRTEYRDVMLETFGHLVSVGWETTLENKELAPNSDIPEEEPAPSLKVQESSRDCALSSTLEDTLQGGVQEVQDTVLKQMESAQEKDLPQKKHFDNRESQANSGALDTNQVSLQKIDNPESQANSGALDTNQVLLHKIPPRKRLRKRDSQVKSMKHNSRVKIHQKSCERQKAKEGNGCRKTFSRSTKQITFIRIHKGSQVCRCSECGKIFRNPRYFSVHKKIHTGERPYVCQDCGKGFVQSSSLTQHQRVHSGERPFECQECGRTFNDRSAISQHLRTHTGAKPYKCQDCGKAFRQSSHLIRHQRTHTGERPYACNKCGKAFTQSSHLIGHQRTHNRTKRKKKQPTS

Some of the results follow.
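Also: competitive profiling in live THP-1 cells: cysteine peptides tagged with an iodoacetamide desthiobiotin (IA-DTB) probe, intensity after compound treatment relative to DMSO-treated cells.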

Compound in the assay: Cc1cc(ccc1-c1ccccc1)C(=O)N1CCCN(CC1)C(=O)CCl [compound 10]
Briefly: probe-labelled cysteine peptide fold change vs DMSO (competition) (log2 fold change); higher = less target engagement (more negative = stronger competition). Particulars: 50 µM; THP-1; incubation time: 4 h.
For the target “ZNF76_P36508_342_HHVVHTHCK (UniProt P36508)”, the “probe-labelled cysteine peptide fold change” value is -0.0476. In the case of “ZNF706_Q9Y5V0_44_AALIYTCTVCR (UniProt Q9Y5V0)”, the “probe-labelled cysteine peptide fold change” value worked out at 0.15. For “ZFPL1_O95159_16_VTNLFCFEHR (UniProt O95159)”, the “probe-labelled cysteine peptide fold change” value was found to be 0.0924.

“ZNF618_Q5T7W0_668_SMHEVIELLNVCEDLAGSTGLAK (UniProt Q5T7W0)”: the “probe-labelled cysteine peptide fold change” value amounted to 0.219. To “ZMIZ1_Q9ULJ6_763_HVQCFDLESYLQLNCER (UniProt Q9ULJ6)” belongs -0.163; to “ZMYM3_Q14202_747_HFCNQQCLLR (UniProt Q14202)”, -0.384. For the target “ZFP91_Q96JP5_182_TGSLQLICK (UniProt Q96JP5)”, the “probe-labelled cysteine peptide fold change” value is -0.272. For “ZNF598_Q86UK7_867_VCPTCQQVLAHGDASSHQALHAAR (UniProt Q86UK7)”, the “probe-labelled cysteine peptide fold change” value amounted to 0.187. To “ZMYND8_Q9ULU4_91_NDFYCWVCHR (UniProt Q9ULU4)” belongs -0.0329; to “ZNF280C_Q8ND82_388_ICELSFETEHILLQHMK (UniProt Q8ND82)”, 0.0405. As for “ZNF292_O60281_2260_CDCEGCDR (UniProt O60281)”, the “probe-labelled cysteine peptide fold change” value is 0.272. As to “ZNF579_Q8NAF0_77_LSHSGLRPHACPLCPK (UniProt Q8NAF0)”, the “probe-labelled cysteine peptide fold change” value was -0.0195. To “ZFR_Q96KR1_387+391_CELCDVSCTGADAYAAHIR (UniProt Q96KR1)” belongs 0.224; to “ZNF629_Q9UEG4_214_CFSWSSNLVQHQR (UniProt Q9UEG4)”, 0.138. In the case of “ZNF106_Q9H2Y7_1131_IQILQGLQETYEPSEHPDQVPCSLTR (UniProt Q9H2Y7)” it was -0.196.

For “ZNF274_Q96GC6_361_DCALSSTLEDTLQGGVQEVQDTVLK (UniProt Q96GC6)”, the “probe-labelled cysteine peptide fold change” value came to 0.202.
